Results are given in words; binding and its absence hold for the method and conditions named. Some entries that bind do so weakly or less than the wild type.
Tests used:
hEPG5^Q336R (human) = hEPG5^Q336R (human) (UniProt Q9HCE0); assay: negative stain electron microscopy; purified hEPG5 from the glycerol gradient peak fraction, uranyl formate stain, raw images and 2D class averages; both purified
GST-LC3C (human) = GST-LC3C (human) (UniProt Q9BXW4); assay: pull-down; GST pull-down: purified GST-LC3A/B/C or GST-GABARAP/L1/L2 bait (200–240 µg) on glutathione resin, purified His-FLAG-hEPG5 or mutant (25–30 µg) as prey; 50 mM Tris pH 8.0, 150 mM NaCl, 5% glycerol, 0.01% Tween20, 0.5 mM DTT, 4 °C; anti-FLAG fluorescence western blot; both purified
GST-GABARAP (human) = GST-GABARAP (human) (UniProt O95166); assay: as above

The chains behind the UniProt entries cited, without tags or fusion partners. Where a name states a change or a piece, a line headed by the entry shows the natural chain unless it says otherwise. Residues count along the entry.
UniProt Q9HCE0: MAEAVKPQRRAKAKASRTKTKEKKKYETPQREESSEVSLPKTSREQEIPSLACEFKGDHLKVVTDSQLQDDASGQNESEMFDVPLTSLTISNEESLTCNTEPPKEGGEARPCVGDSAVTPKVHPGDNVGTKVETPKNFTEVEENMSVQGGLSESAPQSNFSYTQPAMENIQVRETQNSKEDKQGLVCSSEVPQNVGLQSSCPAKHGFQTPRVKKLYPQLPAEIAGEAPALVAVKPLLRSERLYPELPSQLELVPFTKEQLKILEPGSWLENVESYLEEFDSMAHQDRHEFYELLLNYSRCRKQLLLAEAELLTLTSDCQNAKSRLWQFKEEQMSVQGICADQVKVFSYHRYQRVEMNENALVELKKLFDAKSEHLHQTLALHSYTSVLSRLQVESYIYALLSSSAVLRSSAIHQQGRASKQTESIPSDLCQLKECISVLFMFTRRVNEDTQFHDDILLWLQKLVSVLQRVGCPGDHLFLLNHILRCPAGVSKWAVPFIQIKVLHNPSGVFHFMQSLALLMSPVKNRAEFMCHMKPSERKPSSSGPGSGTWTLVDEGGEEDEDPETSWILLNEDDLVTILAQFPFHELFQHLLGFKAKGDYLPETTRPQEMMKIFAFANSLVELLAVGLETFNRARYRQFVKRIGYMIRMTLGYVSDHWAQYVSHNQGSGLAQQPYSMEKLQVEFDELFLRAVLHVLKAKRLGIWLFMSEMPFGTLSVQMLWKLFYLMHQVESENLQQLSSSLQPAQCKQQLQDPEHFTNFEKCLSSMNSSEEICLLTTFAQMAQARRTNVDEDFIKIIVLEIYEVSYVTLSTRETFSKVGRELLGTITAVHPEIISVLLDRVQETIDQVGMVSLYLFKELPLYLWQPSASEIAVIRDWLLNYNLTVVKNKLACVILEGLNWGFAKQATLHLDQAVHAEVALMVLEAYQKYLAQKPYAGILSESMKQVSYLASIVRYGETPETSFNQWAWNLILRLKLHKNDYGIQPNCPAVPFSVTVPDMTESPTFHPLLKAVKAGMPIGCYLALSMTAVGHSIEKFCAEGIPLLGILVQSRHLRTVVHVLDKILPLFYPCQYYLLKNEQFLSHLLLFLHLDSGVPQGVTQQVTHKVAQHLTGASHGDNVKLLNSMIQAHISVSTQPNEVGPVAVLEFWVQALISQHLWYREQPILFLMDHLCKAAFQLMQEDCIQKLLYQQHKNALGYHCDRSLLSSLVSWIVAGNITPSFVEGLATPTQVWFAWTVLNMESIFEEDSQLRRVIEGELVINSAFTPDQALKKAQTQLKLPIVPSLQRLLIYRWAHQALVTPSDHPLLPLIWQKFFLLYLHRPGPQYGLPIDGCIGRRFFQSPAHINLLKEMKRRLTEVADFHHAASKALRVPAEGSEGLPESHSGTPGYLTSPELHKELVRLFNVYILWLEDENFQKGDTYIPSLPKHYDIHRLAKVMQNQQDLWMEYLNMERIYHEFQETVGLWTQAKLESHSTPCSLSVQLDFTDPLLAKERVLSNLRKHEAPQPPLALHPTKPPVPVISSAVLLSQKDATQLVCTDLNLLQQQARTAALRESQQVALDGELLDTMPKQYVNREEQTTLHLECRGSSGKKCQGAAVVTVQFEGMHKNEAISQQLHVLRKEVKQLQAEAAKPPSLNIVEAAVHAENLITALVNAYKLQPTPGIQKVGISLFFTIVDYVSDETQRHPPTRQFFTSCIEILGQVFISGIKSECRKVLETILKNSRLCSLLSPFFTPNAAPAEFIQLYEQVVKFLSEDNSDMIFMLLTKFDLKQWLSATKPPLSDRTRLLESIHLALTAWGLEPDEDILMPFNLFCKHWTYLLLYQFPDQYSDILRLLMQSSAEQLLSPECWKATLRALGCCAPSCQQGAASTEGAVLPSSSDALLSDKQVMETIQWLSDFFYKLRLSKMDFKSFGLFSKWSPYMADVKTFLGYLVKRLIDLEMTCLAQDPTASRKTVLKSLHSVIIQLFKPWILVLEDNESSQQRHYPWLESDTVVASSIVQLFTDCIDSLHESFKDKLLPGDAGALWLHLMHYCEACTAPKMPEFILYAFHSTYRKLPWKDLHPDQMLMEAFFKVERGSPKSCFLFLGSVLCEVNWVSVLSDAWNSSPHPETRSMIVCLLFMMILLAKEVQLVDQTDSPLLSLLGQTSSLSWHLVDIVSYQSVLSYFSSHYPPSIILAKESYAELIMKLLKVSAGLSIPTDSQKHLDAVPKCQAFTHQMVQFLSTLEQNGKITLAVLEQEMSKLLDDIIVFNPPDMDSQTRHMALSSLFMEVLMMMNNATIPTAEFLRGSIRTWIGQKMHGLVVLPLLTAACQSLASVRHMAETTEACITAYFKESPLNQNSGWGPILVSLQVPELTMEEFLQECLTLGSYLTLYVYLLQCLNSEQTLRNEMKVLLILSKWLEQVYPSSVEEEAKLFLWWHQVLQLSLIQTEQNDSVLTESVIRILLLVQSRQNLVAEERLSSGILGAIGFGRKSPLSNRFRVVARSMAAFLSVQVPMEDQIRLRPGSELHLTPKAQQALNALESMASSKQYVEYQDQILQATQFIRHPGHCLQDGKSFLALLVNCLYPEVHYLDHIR
UniProt Q9BXW4, residues 1-126: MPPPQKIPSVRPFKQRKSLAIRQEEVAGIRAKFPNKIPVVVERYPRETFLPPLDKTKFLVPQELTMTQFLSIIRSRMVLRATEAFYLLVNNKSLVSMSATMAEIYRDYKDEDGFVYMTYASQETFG
UniProt O95166: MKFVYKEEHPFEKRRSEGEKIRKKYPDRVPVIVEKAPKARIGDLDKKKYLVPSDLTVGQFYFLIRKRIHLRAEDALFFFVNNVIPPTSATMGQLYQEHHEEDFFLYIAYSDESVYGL

| binding (hEPG5^Q336R (human)) | binding (GST-LC3C (human)) | Substance | binding (GST-GABARAP (human)) |
| --- | --- | --- | --- |
| no binding | binds | hEPG5^Q336R (from UniProt Q9HCE0 1-2579) |  |
|  |  | hEPG5^W550A/W567A (from UniProt Q9HCE0 1-2579) | no binding (tested: 25–30 µg hEPG5 on 200–240 µg bait) |
|  | binds | His-FLAG-hEPG5 (human EPG5, full length, wild type) (from UniProt Q9HCE0 1-2579) |  |
